Residue numbers refer to the chain shown, from its start. No constants are given. Whether binding was seen depends on the method and setting. Some binding calls cover weakened binding; strength is not graded here.
B1: Mu mAb (antibody, V domains shown)
VH: QVQLQQSGSELVRPGASVKLSCKASGYTFTTYWMHWVRQRPGQGLEWIGNIYPGTGGSNFDEKFKNRTSLTVDTSSTTAYMHLASLTSEDSAVYYCTRWTTGTGAYWGQGTLVTVSA
VL: DIVMTQSPSSLTVTAGEKVTMSCKSSQSLLDSGNQKNFLTWYQQKPGQPPKLLIFWASTRESGVPDRFTGSGSVTDFTLTISSVQAEDLAVYYCQNDYSYPCTFGGGTKLEIK
B2: Chi mAb (Tyr) (antibody, human IgG4 S228P, kappa, V domains shown)
VH: B1 VH with L112T, A117S
VL: DIVMTQSPSSLTVTAGEKVTMSCKSSQSLLDSGNQKNFLTWYQQKPGQPPKLLIFWASTRESGVPDRFTGSGSVTDFTLTISSVQAEDLAVYYCQNDYSYPYTFGQGTKVEIKR
B3: BAP049-hum03 (antibody, human IgG4 S228P, kappa, V domains shown)
VH: EVQLVQSGAEVKKPGESLRISCKGSGYTFTTYWMHWIRQSPSRGLEWLGNIYPGTGGSNFDEKFKNRFTISRDNSKNTLYLQMNSLRAEDTAVYYCTRWTTGTGAYWGQGTTVTVSS
VL: DIQMTQSPSSLSASVGDRVTITCKSSQSLLDSGNQKNFLTWYQQKPGQAPRLLIYWASTRESGIPPRFSGSGYGTDFTLTINNIESEDAAYYFCQNDYSYPYTFGQGTKVEIKR
B4: BAP049-hum16 (antibody, human IgG4 S228P, kappa, V domains shown)
VH: B3 VH with I37V, S40A, S42G, R43Q, L48M
VL: EIVLTQSPDFQSVTPKEKVTITCKSSQSLLDSGNQKNFLTWYQQKPGQAPRLLIYWASTRESGVPSRFSGSGSGTDFTFTISSLEAEDAATYYCQNDYSYPYTFGQGTKVEIKR
B5: BAP049-hum04 (antibody, human IgG4 S228P, kappa, V domains shown)
VH: B3 VH
VL: EIVLTQSPATLSLSPGERATLSCKSSQSLLDSGNQKNFLTWYQQKPGKAPKLLIYWASTRESGVPSRFSGSGSGTDFTFTISSLQPEDIATYYCQNDYSYPYTFGQGTKVEIKR
B6: Chi mAb (Cys) (antibody, human IgG4 S228P, kappa, V domains shown)
VH: B1 VH with L112T, A117S
VL: B2 VL with Y102C

By UniProt entry, the sequences of proteins in these tests, tags left out. Residues count along the entry.
UniProt Q15116, residues 25-167: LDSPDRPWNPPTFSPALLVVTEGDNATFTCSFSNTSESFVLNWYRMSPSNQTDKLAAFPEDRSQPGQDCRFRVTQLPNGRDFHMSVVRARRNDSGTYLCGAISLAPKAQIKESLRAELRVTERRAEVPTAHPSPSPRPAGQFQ

Biological target: Programmed Death 1 (PD-1) (UniProt Q15116)
Assay: FACS ligand blocking: binding of PD-L2-Ig to PD-1 at increasing mAb concentration

Question: For B1, which binding is on record?
Answer: Its binding is “binds”.

Question: With B2 as the binder, how does the binding read?
Answer: The binding was “binds”.

Biological target: Programmed Death 1 (PD-1) (UniProt Q15116)
Assay: FACS binding analysis, median fluorescence units at 200, 100, 50, 25 and 12.5 ng/ml (cells not named in the legend)

Question: B3 was tested. Which binding did it give?
Answer: Its binding is “binds”.

Question: B4 was tested. Which binding did it give?
Answer: The binding was “binds”.

Question: For B5, which binding is on record?
Answer: Its binding is “binds”.

Biological target: Programmed Death 1 (PD-1) (UniProt Q15116)
Assay: FACS ligand blocking: binding of PD-L1-Ig to PD-1 at increasing mAb concentration (legend paragraph 212 names 'PD-L1-Ig and PD-L2-Ig' for FIG. 8A)

Question: For B1, which binding is on record?
Answer: The binding was “binds”.

Question: How did the binding turn out when B2 was run?
Answer: Its binding is “binds”.

Biological target: Programmed Death 1 (PD-1) (UniProt Q15116)
Assay: FACS competition binding: fluorescently labelled murine mAb BAP049 (Mu mAb) against increasing unlabelled mAb; MFI of the labelled mAb is read

Question: With B1 as the binder, how does the binding read?
Answer: Its binding is “binds”.

Question: B2 was tested. Which binding did it give?
Answer: The binding was “binds”.

Question: B6 was tested. Which binding did it give?
Answer: Its binding is “binds”.

Biological target: Programmed Death 1 (PD-1) (UniProt Q15116)
Assay: FACS competition binding on PD-1-expressing 300.19 cells: constant concentration of Alexa 488-labelled murine mAb BAP049, serial dilutions of the test mAb; x axis = conc. test mAb / conc. labelled murine mAb

Question: B3 was tested. Which binding did it give?
Answer: Its binding is “binds”.

Question: B4 was tested. Which binding did it give?
Answer: The binding was “binds”.

Question: Which binding does the source give for B5 here?
Answer: The binding was “binds”.

Question: How did the binding turn out when B1 was run?
Answer: The binding was “binds”.

Question: For B2, which binding is on record?
Answer: The binding was “binds”.

Reference: US20180371093A1
